1 molecule from PMC4705382 can be followed below.

These are yes or no findings as the source states them, for the method shown. Binding seen in cells or lysates may run through a third protein. Binding calls can cover weak binding; strength is not graded here.

Test [1] has as its target Miro (rat brain) (rat (endogenous in brain)). Nature of the test: co-IP; native co-IP from brain homogenate of transgenic rats expressing human DISC1; lysis buffer with 1.5% Triton X-100, 1% BSA, antibodies overnight, protein A beads.
In test [2] the target is TRAK1 (rat brain) (rat (endogenous in brain)). The description is as above.

B1: full-length, non-mutant, human DISC1 (transgenic rat brain) (protein, UniProt Q9NRI5 1-854)
chain: MPGGGPQGAPAAAGGGGVSHRAGSRDCLPPAACFRRRRLARRPGYMRSSTGPGIGFLSPAVGTLFRFPGGVSGEESHHSESRARQCGLDSRGLLVRSPVSKSAAAPTVTSVRGTSAHFGIQLRGGTRLPDRLSWPCGPGSAGWQQEFAAMDSSETLDASWEAACSDGARRVRAAGSLPSAELSSNSCSPGCGPEVPPTPPGSHSAFTSSFSFIRLSLGSAGERGEAEGCPPSREAESHCQSPQEMGAKAASLDGPHEDPRCLSRPFSLLATRVSADLAQAARNSSRPERDMHSLPDMDPGSSSSLDPSLAGCGGDGSSGSGDAHSWDTLLRKWEPVLRDCLLRNRRQMEVISLRLKLQKLQEDAVENDDYDKAETLQQRLEDLEQEKISLHFQLPSRQPALSSFLGHLAAQVQAALRRGATQQASGDDTHTPLRMEPRLLEPTAQDSLHVSITRRDWLLQEKQQLQKEIEALQARMFVLEAKDQQLRREIEEQEQQLQWQGCDLTPLVGQLSLGQLQEVSKALQDTLASAGQIPFHAEPPETIRSLQERIKSLNLSLKEITTKVCMSEKFCSTLRKKVNDIETQLPALLEAKMHAISGNHFWTAKDLTEEIRSLTSEREGLEGLLSKLLVLSSRNVKKLGSVKEDYNRLRREVEHQETAYETSVKENTMKYMETLKNKLCSCKCPLLGKVWEADLEACRLLIQSLQLQEARGSLSVEDERQMDDLEGAAPPIPPRLHSEDKRKTPLKVLEEWKTHLIPSLHCAGGEQKEESYILSAELGEKCEDIGKKLLYLEDQLHTAIHSHDEDLIQSLRRELQMVKETLQAMILQLQPAKEAGEREAAASCMTAGVHEAQA
B1: the binding result in test [1] and in test [2] was “binds” in each case.
